# Test results published in the supplement of paper PMC8728848.
# The list shows a part of the results.
# B1: GS13599A-bth-520-23-520 (Bacteroides thetaiotaomicron) (protein)
# chain: SEDTMDRINKDHDHTTSVASRFILADVITSTAFSNASGDINTYASSYIEYEVGVDNQLYYAEVRENEPSSSSTFNNSWNGIYSSLKNARIIIDQCGEGGRDHGNDVTRGMAEVMAAYNCALIADFFGDAPCSQAALVDEKGSPVYMTPKMDTQQEIYTQIISYLDDAIANLQKEDLADVTEQDFLYAGDADKWLKFAYGLKARYTMRLINRSSNKSADYEKVLDYVSKSFTSADDQAAFDIYDSNNINPFYGFYNSRAGFGASTSLGTKLLAYNDPRANRAFFTPIVDKKRSQVAANDPSLVPAPNGSPDQSTSKYGISAFVYAKTAPTLLMSYHELMFLKAEALCRLNRDAEDALKEAVVAGLLNAENSISIAIKELGSGLNTNSSEVITETSAGKYFDDVVKAKYAANPLQETMIQKYLAMWGASGEATETYNDFRRMKGLNENFITLTNPNNSSKFPLRYPYGNSDTAANPEVKAAYGNGDYVYSEPVWWAGGSR
# Experiments:
# Assay in all cases: glycan array binding signal (z-score within array); higher = stronger binding
# Conditions in all cases: glycan notation: IUPAC condensed, linker removed
# [1] = biological target: GlcNAc(b1-3)Gal(b1-4)GlcNAc(b1-3)Gal(b1-4)GlcNAc(b1-3)GalNAc
# Summary of the method: (§1)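 Negative Z-scores can be read as non-binding. The Z-score is calculated within each array and then averaged across arrays of one protein sequence at different concentrations or buffers and across linkers. Arrays, 3228 in all, were curated from the Consortium for Functional Glycomics database and kept only where the protein sequence was available.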
# [2] = biological target: GlcNAc(b1-3)Gal(b1-4)GlcNAc(b1-3)GalNAc
# Summary of the method: as §1
# [3] = biological target: GlcNAc(b1-3)Gal(b1-4)GlcNAc(b1-3)[GlcNAc(b1-3)Gal(b1-4)GlcNAc(b1-3)]GalNAc
# Summary of the method: as §1
# [4] = biological target: GlcNAc(b1-3)Gal(b1-4)GlcNAc(b1-6)[Gal(b1-3)]GalNAc
# Summary of the method: as §1
# [5] = biological target: GlcNAc(b1-3)Gal(b1-4)GlcNAc(b1-6)[GlcNAc(b1-3)Gal(b1-3)]GalNAc
# Summary of the method: as §1
# [6] = biological target: GlcNAc(b1-3)Gal(b1-4)GlcNAc(b1-6)[GlcNAc(b1-3)]Gal(b1-4)GlcNAc
# Summary of the method: as §1
# [7] = biological target: GlcNAc(b1-3)GalNAc
# Summary of the method: as §1
# [8] = biological target: GlcNAc(b1-3)Man
# Summary of the method: as §1
# [9] = biological target: GlcNAc(b1-3)[GlcNAc(b1-4)][GlcNAc(b1-6)]GlcNAc
# Summary of the method: as §1
# [10] = biological target: GlcNAc(b1-3)[GlcNAc(b1-6)]Gal(b1-4)GlcNAc
# Summary of the method: as §1
# [11] = biological target: GlcNAc(b1-3)[GlcNAc(b1-6)]GalNAc
# Summary of the method: as §1
# [12] = biological target: GlcNAc(b1-4)Gal(b1-4)GlcNAc
# Summary of the method: as §1
# [13] = biological target: GlcNAc(b1-4)GlcNAc
# Summary of the method: as §1
# [14] = biological target: GlcNAc(b1-4)GlcNAc(b1-4)GlcNAc
# Summary of the method: as §1
# [15] = biological target: GlcNAc(b1-4)GlcNAc(b1-4)GlcNAc(b1-4)GlcNAc(b1-4)GlcNAc
# Summary of the method: as §1
# [16] = biological target: GlcNAc(b1-4)GlcNAc(b1-4)GlcNAc(b1-4)GlcNAc(b1-4)GlcNAc(b1-4)GlcNAc
# Summary of the method: as §1
# [17] = biological target: GlcNAc(b1-4)[GlcNAc(b1-6)]GalNAc
# Summary of the method: as §1
# [18] = biological target: GlcNAc(b1-6)Gal(b1-4)GlcNAc
# Summary of the method: as §1
# [19] = biological target: GlcNAc(b1-6)GalNAc
# Summary of the method: as §1
# [20] = biological target: GlcNAc6S(b1-3)Gal(b1-4)GlcNAc
# Summary of the method: as §1
# [21] = biological target: Kdn(a2-3)Gal(b1-3)GalNAc
# Summary of the method: as §1
# [22] = biological target: Kdn(a2-3)Gal(b1-3)GlcNAc
# Summary of the method: as §1
# [23] = biological target: Kdn(a2-3)Gal(b1-4)Glc
# Summary of the method: as §1
# [24] = biological target: Kdn(a2-3)Gal(b1-4)GlcNAc
# Summary of the method: as §1
# [25] = biological target: Kdn(a2-3)Gal(b1-4)[Fuc(a1-3)]GlcNAc
# Summary of the method: as §1
# [26] = biological target: Kdn(a2-6)Gal(b1-4)GlcNAc
# Summary of the method: as §1
# [27] = biological target: Man(a1-2)Man(a1-2)Man(a1-3)Man
# Summary of the method: as §1
# [28] = biological target: Man(a1-2)Man(a1-2)Man(a1-6)[Man(a1-3)]Man
# Summary of the method: as §1
# [29] = biological target: Man(a1-2)Man(a1-3)Man
# Summary of the method: as §1
# [30] = biological target: Man(a1-2)Man(a1-3)[Man(a1-2)Man(a1-6)]Man
# Summary of the method: as §1
# [31] = biological target: Man(a1-2)Man(a1-3)[Man(a1-2)Man(a1-6)]Man(a1-6)[Man(a1-2)Man(a1-2)Man(a1-3)]Man
# Summary of the method: as §1
# [32] = biological target: Man(a1-2)Man(a1-3)[Man(a1-2)Man(a1-6)]Man(a1-6)[Man(a1-2)Man(a1-2)Man(a1-3)]Man(b1-4)GlcNAc(b1-4)GlcNAc
# Summary of the method: as §1
# [33] = biological target: Man(a1-2)Man(a1-3)[Man(a1-6)]Man(a1-6)[Man(a1-2)Man(a1-3)]Man(b1-4)GlcNAc(b1-4)GlcNAc
# Summary of the method: as §1
# [34] = biological target: Man(a1-2)Man(a1-6)[Man(a1-3)]Man(a1-6)[Man(a1-2)Man(a1-2)Man(a1-3)]Man
# Summary of the method: as §1
# [35] = biological target: Man(a1-2)Man(a1-6)[Man(a1-3)]Man(a1-6)[Man(a1-2)Man(a1-2)Man(a1-3)]Man(b1-4)GlcNAc(b1-4)GlcNAc
# Summary of the method: as §1
# [36] = biological target: Man(a1-3)[Man(a1-6)]Man
# Summary of the method: as §1
# [37] = biological target: Man(a1-3)[Man(a1-6)]Man(a1-6)[Man(a1-2)Man(a1-3)]Man(b1-4)GlcNAc(b1-4)GlcNAc
# Summary of the method: as §1
binder,measurement,setting,value
B1,glycan array binding signal (z-score),[1],-0.242
same,glycan array binding signal (z-score),[2],-0.319
same,glycan array binding signal (z-score),[3],-0.324
same,glycan array binding signal (z-score),[4],-0.543
same,glycan array binding signal (z-score),[5],0.056
same,glycan array binding signal (z-score),[6],0.736
same,glycan array binding signal (z-score),[7],-0.348
same,glycan array binding signal (z-score),[8],0.755
same,glycan array binding signal (z-score),[9],-1.11
same,glycan array binding signal (z-score),[10],0.291
same,glycan array binding signal (z-score),[11],-0.081
same,glycan array binding signal (z-score),[12],-0.441
same,glycan array binding signal (z-score),[13],0.134
same,glycan array binding signal (z-score),[14],-0.942
same,glycan array binding signal (z-score),[15],-1.21
same,glycan array binding signal (z-score),[16],-0.528
same,glycan array binding signal (z-score),[17],-0.35
same,glycan array binding signal (z-score),[18],0.345
same,glycan array binding signal (z-score),[19],-0.798
same,glycan array binding signal (z-score),[20],-0.546
same,glycan array binding signal (z-score),[21],1.78
same,glycan array binding signal (z-score),[22],1.02
same,glycan array binding signal (z-score),[23],-0.559
same,glycan array binding signal (z-score),[24],0.096
same,glycan array binding signal (z-score),[25],0.574
same,glycan array binding signal (z-score),[26],-0.019
same,glycan array binding signal (z-score),[27],0.245
same,glycan array binding signal (z-score),[28],-0.488
same,glycan array binding signal (z-score),[29],-0.492
same,glycan array binding signal (z-score),[30],-1.45
same,glycan array binding signal (z-score),[31],-0.528
same,glycan array binding signal (z-score),[32],-1.33
same,glycan array binding signal (z-score),[33],-1.2
same,glycan array binding signal (z-score),[34],-0.654
same,glycan array binding signal (z-score),[35],-0.748
same,glycan array binding signal (z-score),[36],0.71
same,glycan array binding signal (z-score),[37],1.29

# A portion of the results above, as a working copy:
binder,measurement,setting,value
B1,glycan array binding signal (z-score),[33],-1.2
same,glycan array binding signal (z-score),[34],-0.654
same,glycan array binding signal (z-score),[35],-0.748
